Our source for the IC50 values is publication PMC11376197 (Chemical Science, 2024).

By IC50 is commonly meant the concentration at which inhibition is half-maximal.

The test system of one assay is A549 (lung cancer cells). As to the kind of experiment: Cell viability assay. Format: cell-based, human. Conditions: read-out: IC50 A549; 96 h of incubation.
Assay [1] concerns MDA-MB-231 (triple-negative breast cancer cells). Nature of the assay: Cell viability assay. It counts as cell-based, human. Conditions: read-out: IC50 MDA-MB-231; 96 h of incubation.

Turning to `N.N.[Cl][Pt][Cl]` [Cisplatin], the figures for the IC50 (in the assay on A549 (lung cancer cells); in assay [1]) were 11 ± 1 µM and 15 ± 1 µM, respectively.
